This experiment deals with L1210 leukemia ip in BDF1 mice, survival T/C. As to the kind of experiment: NCI In Vivo Anticancer Drug Screen. Data for tumor model L1210 Leukemia (intraperitoneal) in B6D2F1 (BDF1) mice. The conditions noted are these: T/C endpoint: mean survival time, higher T/C = longer survival.
The mark [1] stands for this setting: dose: 200.0 mg/kg/injection, schedule: Q01DX009 (ip), vehicle: Klucel (hydroxypropylcellulose) (HPC).
The mark [2] stands for this setting: dose: 400.0 mg/kg/injection, schedule: Q01DX009 (ip), vehicle: Klucel (hydroxypropylcellulose) (HPC).
[3] abbreviates: dose: 200.0 mg/kg/injection, schedule: Q01DX001 (ip), vehicle: saline.
Where [4] appears, read: dose: 300.0 mg/kg/injection, schedule: Q01DX001 (ip), vehicle: saline.
[5] abbreviates: dose: 150.0 mg/kg/injection, schedule: Q01DX001 (ip), vehicle: saline.
The mark [6] stands for this setting: dose: 400.0 mg/kg/injection, schedule: Q04DX003 (ip), vehicle: saline.
The mark [7] stands for this setting: dose: 200.0 mg/kg/injection, schedule: Q04DX003 (ip), vehicle: saline.
Setting [8] is: dose: 400.0 mg/kg/injection, schedule: Q04DX002 (ip), vehicle: saline with Tween-80.
Setting [9] is: dose: 400.0 mg/kg/injection, schedule: Q04DX003 (ip), vehicle: Klucel (hydroxypropylcellulose) (HPC).

29 compounds from PubChem BioAssay AID248 (DTP/NCI, 2004) can be followed below.

The list is a part of this screen's results and no random one: it is rich in T/C values a quarter to a half above the control, in often repeated tests (any T/C) and in doses without a T/C. Further doses and runs are listed elsewhere. T/C gives the treated animals as a percentage of the vehicle group. Some entries give survivors of the animals treated and no T/C: the source files T/C as zero there, which appears to mark a toxic dose or a test without result, not a measured value. Some survivor counts are full or nearly so, which does not show that the dose was tolerated: the source hardly ever lists a survival T/C far under the control, and the zero likely stands for such cases as well. Counts of survivors are from the toxicity check (mostly the fifth day) where no day follows; animals may have died later. Schedules are NCI's codes, taken here to give the interval after Q, in days (D) or hours (H), and the number of doses after X. Some doses were run more than once; their values stand side by side, smallest first. Some schedules carry Z or #; the key to these is not given. Where survival is the endpoint, this PubChem deposit counts one and a half times the control or more as active, and values a quarter to a half above the control carry no call in these data; other NCI protocols may use other cut-offs.

With `Cc1ccc2no[n+]([O-])c2c1`, the survivor count by setting is: (dose: 80.0 mg/kg/injection, schedule: Q01DX009 (ip), vehicle: Klucel (hydroxypropylcellulose) (HPC)) 2 of 6; (dose: 100.0 mg/kg/injection, schedule: Q01DX009 (ip), vehicle: Klucel (hydroxypropylcellulose) (HPC)) 3 of 6; under setting [1], 0 of 6; under setting [2], 0 of 6.
Regarding `COc1cc(NC(=O)CN(CCCl)CCCl)cc(OC)c1OC`, the T/C is, setting by setting: (dose: 30.0 mg/kg/injection, schedule: Q01DX009 (ip), vehicle: saline) 135 % of control; (dose: 45.0 mg/kg/injection, schedule: Q01DX009 (ip), vehicle: saline) 135 % of control; (dose: 66.0 mg/kg/injection, schedule: Q01DX009 (ip), vehicle: saline) 135 % of control; (dose: 88.8 mg/kg/injection, schedule: Q01DX001 (ip), vehicle: carboxymethylcellulose (CMC)) 140 % of control; (dose: 133.0 mg/kg/injection, schedule: Q01DX001 (ip), vehicle: saline) 127 % of control; (dose: 200.0 mg/kg/injection, schedule: Q01DX001 (ip), vehicle: carboxymethylcellulose (CMC)) 140 % of control. Besides, the T/C runs as follows: under setting [3], 132 % of control; (dose: 300.0 mg/kg/injection, schedule: Q01DX001 (ip), vehicle: carboxymethylcellulose (CMC)) 140 % of control; under setting [4], 126 % of control.
Take `c1cc2ccc3ccc[n+]4c3c2[n+](c1)CC4`: the survivor count was 2 of 6 under setting [5] and 0 of 6 under setting [4].
As to `O=C1NC(=O)C([n+]2ccccc2)=C1[O-]`, the survivor count under setting [6] was 0 of 3.
With `CCN(CC)CC(=O)NCC(CCN1CCCCC1)(Cc1cccc2ccccc12)C(C)C` (stereo not given), the survivor count reads like this: (dose: 100.0 mg/kg/injection, schedule: Q01DX009 (ip), vehicle: saline) 0 of 6; (dose: 200.0 mg/kg/injection, schedule: Q01DX009 (ip), vehicle: saline) 0 of 6; (dose: 400.0 mg/kg/injection, schedule: Q01DX009 (ip), vehicle: saline) 0 of 6.
Consider `O=c1n(-c2ccccc2)c(=O)n2n1C1/C=C\C=C/C2C2CCC21` (stereo not given), for which the survivor count runs as follows: (dose: 50.0 mg/kg/injection, schedule: Q01DX009 (ip), vehicle: saline with Tween-80) 4 of 4; (dose: 100.0 mg/kg/injection, schedule: Q04DX003 (ip), vehicle: saline with Tween-80) 6 of 6; (dose: 200.0 mg/kg/injection, schedule: Q04DX003 (ip), vehicle: saline with Tween-80) 1 of 6; (dose: 400.0 mg/kg/injection, schedule: Q04DX003 (ip), vehicle: saline with Tween-80) 0 of 6.
As for `Cc1cc(P(=O)(O)O)ccc1Cl`, the survivor count (dose: 400.0 mg/kg/injection, schedule: Q01DX009 (ip), vehicle: acetone) is listed as 2 of 6.
As to `C[C@]12C=CC(=O)C=C1CC[C@@H]1[C@@H]2[C@@H](O)C[C@@]2(C)[C@H]1CC[C@]2(O)C(=O)COC(=O)CCC(=O)O`, the survivor count (dose: 1000.0 mg/kg/injection, schedule: Q01DX015 (sc), vehicle: steroid suspending solution) is recorded as 0 of 6.
Turning to `COc1ccc2c(c1)CCNC2CCO` (stereo not given), the survivor count under setting [7] is on record as 0 of 6 and the survivor count under setting [6] is given as 0 of 6.
Turning to `Oc1cncc2ccccc12`, the survivor count under setting [7] is reported as 6 of 6.
As for `Nc1ccc(Nc2ccccc2)cc1`, the survivor count (dose: 400.0 mg/kg/injection, schedule: Q04DX002 (ip), vehicle: Klucel (hydroxypropylcellulose) (HPC)) is listed as 0 of 3.
As to `ClCCCC#Cc1ccccc1`, the survivor count (dose: 400.0 mg/kg/injection, schedule: Q01DX001 (ip), vehicle: Klucel (hydroxypropylcellulose) (HPC)) is recorded as 3 of 6.
Turning to `OCC1CCN1C(c1ccccc1)c1ccccc1` (stereo not given), the survivor count under setting [8] is on record as 1 of 3.
As to `O=C(O)c1c(F)c(F)c(Oc2c(F)c(F)c(F)c(Oc3c(F)c(F)c(C(=O)O)c(F)c3F)c2F)c(F)c1F`, the survivor count is listed as 0 of 6 under setting [2] and 6 of 6 under setting [9].
With `CC(C)(C)C#CC#CC(C)(C)C`, the survivor count reads like this: (dose: 75.0 mg/kg/injection, schedule: Q01DX001 (ip), vehicle: saline) 3 of 6; under setting [5], 3 of 6; under setting [4], 1 of 6.
Take `O=C(CC(O)(C(F)(F)F)C(F)(F)F)c1ccc(C(=O)CC(O)(C(F)(F)F)C(F)(F)F)cc1`: where the note is “dose: 200.0 mg/kg/injection, schedule: Q01DX009 (ip), vehicle: other”, the survivor count is 2 of 6.
Turning to `Cc1nnc(NC(=O)CCl)s1`, the survivor count was 4 of 6 under setting [1] and 0 of 6 under setting [2].
With `O=P(OCc1ccccc1)(N(CCCl)CCCl)N1CCN(Cc2ccccc2)CC1` (stereo not given), the survivor count (dose: 300.0 mg/kg/injection, schedule: Q01DX Z (ip), vehicle: saline) was 1 of 6.
`O=C(Nc1ccc(NC(=O)Nc2cccc(C3=NCCN3)c2)cc1)Nc1ccc(C2=NCCN2)cc1`: the T/C (dose: 9.0 mg/kg/injection, schedule: Q01DX Z (ip), vehicle: carboxymethylcellulose (CMC)) is 137 % of control. For the same compound, the survivor count runs as follows: (dose: 72.0 mg/kg/injection, schedule: Q01DX Z (ip), vehicle: carboxymethylcellulose (CMC)) 0 of 6; (dose: 250.0 mg/kg/injection, schedule: Q01DX Z (ip), vehicle: saline) 3 of 6; (dose: 500.0 mg/kg/injection, schedule: Q01DX Z (ip), vehicle: saline) 0 of 6.
On to `CCCCOc1ccc(/C=N\N=C\c2ccc(OCCCC)cc2)cc1`, for which the survivor count (dose: 400.0 mg/kg/injection, schedule: Q01DX009 (ip), vehicle: saline with Tween-80) was 5 of 6.
For `O=C(O)c1c(Br)c(Br)c(Br)c(Br)c1C(=O)Nc1ccc(Br)cc1`, the survivor count under setting [2] is 0 of 6.
With `CCN(CC)CCOc1cccc(OC)c1`, the survivor count (dose: 150.0 mg/kg/injection, schedule: Q01DX009 (ip), vehicle: saline) is recorded as 3 of 6 and the survivor count (dose: 300.0 mg/kg/injection, schedule: Q01DX009 (ip), vehicle: saline) is reported as 0 of 6.
Turning to `O=[As](O)(O)c1ccc(Cl)cc1C(F)(F)F`, the survivor count (dose: 50.0 mg/kg/injection, schedule: Q04DX003 (ip), vehicle: Klucel (hydroxypropylcellulose) (HPC)) is recorded as 0 of 3; the survivor count (dose: 100.0 mg/kg/injection, schedule: Q04DX003 (ip), vehicle: Klucel (hydroxypropylcellulose) (HPC)) is listed as 2 of 3; the survivor count under setting [9] is 0 of 6.
In the case of `Cc1ccc(CCN)cc1C`, the survivor count is given as 1 of 6 under setting [7] and 0 of 6 under setting [6].
For the compound `Cc1ccc(S(=O)(=O)Cl)cc1C(=O)O`, the survivor count (dose: 100.0 mg/kg/injection, schedule: Q01DX001 (ip), vehicle: saline with Tween-80) is 4 of 6; the survivor count (dose: 200.0 mg/kg/injection, schedule: Q01DX001 (ip), vehicle: saline with Tween-80) is given as 0 of 6; the survivor count (dose: 200.0 mg/kg/injection, schedule: Q04DX002 (ip), vehicle: saline with Tween-80) is 0 of 6 and 1 of 3; the survivor count under setting [8] is 0 of 6.
Regarding `O=C(O)C1C2C=Cc3ccccc3C21` (stereo not given), the survivor count reads like this: (dose: 100.0 mg/kg/injection, schedule: Q01DX001 (ip), vehicle: saline) 3 of 3; under setting [3], 3 of 3.
On to `CN=C(N/N=C(C)\C=N\NC(=NC)N(C)C)N(C)C`, for which the survivor count (dose: 480.0 mg/kg/injection, schedule: Q01DX Z (ip), vehicle: saline) is 1 of 6 and the survivor count (dose: 480.0 mg/kg/injection, schedule: Q01DX Z (oral), vehicle: saline) is listed as 2 of 6.
Consider `OCC[N-]CCCN=Cc1ccccc1O.OCC[N-]CCCN=Cc1ccccc1O.[Co+2]`, for which the survivor count is 0 of 6 under setting [3] and 0 of 6 (dose: 400.0 mg/kg/injection, schedule: Q01DX001 (ip), vehicle: saline).
Consider `O=C1C(O)=C(c2ccc(Br)cc2)C(=O)C(O)=C1c1ccc(Br)cc1`, for which the survivor count was 6 of 6 (dose: 150.0 mg/kg/injection, schedule: Q01DX001 (ip), vehicle: other) and 0 of 6 (dose: 300.0 mg/kg/injection, schedule: Q01DX001 (ip), vehicle: other).
